Among the data in US20060282909A1 are binding values, retold here.

Chains of the proteins cited; added tags and fusions are not shown. Lines headed by an entry give the natural chain unless they say otherwise; changes in a name come on top.
UniProt P04386: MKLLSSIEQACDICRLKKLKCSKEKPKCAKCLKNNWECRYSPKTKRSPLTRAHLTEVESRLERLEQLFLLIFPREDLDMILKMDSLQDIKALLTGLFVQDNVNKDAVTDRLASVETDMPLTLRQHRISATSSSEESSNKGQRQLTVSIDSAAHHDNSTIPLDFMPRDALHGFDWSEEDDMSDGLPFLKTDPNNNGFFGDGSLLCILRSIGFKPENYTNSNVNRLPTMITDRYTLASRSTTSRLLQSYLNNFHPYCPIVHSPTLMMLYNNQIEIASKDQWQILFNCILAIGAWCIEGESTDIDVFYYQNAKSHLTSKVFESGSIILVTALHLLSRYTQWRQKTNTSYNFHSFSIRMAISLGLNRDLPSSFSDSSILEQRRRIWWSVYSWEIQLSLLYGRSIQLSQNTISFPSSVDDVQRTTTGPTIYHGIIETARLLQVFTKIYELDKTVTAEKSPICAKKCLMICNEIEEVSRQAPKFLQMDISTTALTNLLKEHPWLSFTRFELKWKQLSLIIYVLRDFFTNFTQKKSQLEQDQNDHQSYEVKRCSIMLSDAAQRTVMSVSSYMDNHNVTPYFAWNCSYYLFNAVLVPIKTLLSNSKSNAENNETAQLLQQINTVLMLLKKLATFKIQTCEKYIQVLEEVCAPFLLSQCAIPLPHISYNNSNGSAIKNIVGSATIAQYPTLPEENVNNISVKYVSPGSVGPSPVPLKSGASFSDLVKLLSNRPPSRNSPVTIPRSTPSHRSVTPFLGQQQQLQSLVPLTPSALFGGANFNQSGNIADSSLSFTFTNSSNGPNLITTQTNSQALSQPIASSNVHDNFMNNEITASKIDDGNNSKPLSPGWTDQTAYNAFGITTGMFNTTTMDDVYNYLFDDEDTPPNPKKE
UniProt Q08369: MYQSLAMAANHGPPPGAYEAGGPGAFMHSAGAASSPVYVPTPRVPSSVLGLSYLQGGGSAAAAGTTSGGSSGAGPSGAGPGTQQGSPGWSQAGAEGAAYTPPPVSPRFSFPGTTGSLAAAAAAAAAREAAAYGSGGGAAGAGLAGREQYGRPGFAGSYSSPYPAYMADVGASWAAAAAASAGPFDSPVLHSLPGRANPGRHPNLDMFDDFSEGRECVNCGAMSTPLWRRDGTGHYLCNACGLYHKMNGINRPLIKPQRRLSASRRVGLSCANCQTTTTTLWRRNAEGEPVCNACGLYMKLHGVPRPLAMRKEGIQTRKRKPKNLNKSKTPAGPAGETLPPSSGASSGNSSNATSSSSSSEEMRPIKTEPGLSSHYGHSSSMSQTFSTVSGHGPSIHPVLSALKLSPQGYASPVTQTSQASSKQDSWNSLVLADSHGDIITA

For this test, the target named is GATA4 bait: amino acids 130-409 of GATA4 fused in-frame with the GAL4 DNA binding domain (pAS-GATA4) (yeast) (UniProt P04386+Q08369). Kind of test: mammalian two-hybrid transfection assay.

These are yes or no findings as the source states them, for the method shown. Some entries that bind do so weakly or less than the wild type.

B1: full length NF-AT3 (protein)
chain: MGAASCEDEELEFLLVFGEELEAPPLGAGGLGEELDSEDAPPCCRLALGEPPPYGAAPIGIPRPPPPRPGMHSPPPRPAPSPGTWESQPARSVRLGGPGGGAGGAGGGRVLECPSIRITSISPTPEPPAALEDNPDAWGDGSPRDYPPPEGFGGYREAGAQGGGAFFSPSPGSSSLSSWSFFSDASDEAALYAACDEVESELNEAASRFGLGSPLPSPRASPRPWTPEDPWSLYGPSPGGRGPEDSWLLLSAPGPTPASPRPASPCGLRRYSSSGTPSSASPALSRRGSLGEEGSEPPPPPPLPLARDPGSPGPFDYVGAPPAESIPQLTRRTSSEQAVALPRSEEPASCNGLLPLGAEESVAPPGGSRKEVAGMDYLAVPSPLAWSLARIGGHSPIFRTSALPPLDWPLPSQYEQLELRIEVQPRAHHRAHYETEGSRGAVLAAPGGHPVVLLLGYSELPLTLQMFIGTADERNLRPHAFYQVHRITGLMVATASYEAVVSGTLVLEMTLLPENNMAANIDCAGILLLRNSDIELRKGETDIGRKNTRVRLVFRVHVPQGGGLVVSVQAASVPIECSQRSAQELPQVEAYSPSACSVRGGEELVLTGSNFLPDSLVVFIERGPDGLLQWEEEATVNRLQSNEVTLTLTVPEYSNLRVSRPVQVYFYVSNGRRKRSPTQSFRFLPVICLEEPLPDSSLRGFPSASATPFGTDMDFSPPRPPYPSYPHEDPACETPYLSEGFGYGMPPLYPQTGPPPSYRPGLRMFPETRGTTGCAQPPAVSFLPRPFPSDPYGGRGSSFPLGLPFSPPAPFRPPPLPASPPLEGPFPSQSDVHPLPAEGYNLVGPGYGPGEGAPEQELSRGGYSSGFRDSVPIQGITLEEVSEIIGRDLSGFPAPPGEEPPA
Regarding B1, the binding result is on record as “binds”.
